# Some of the results follow.
# Amino acid sequences for entries named in this document (tags omitted).
# UniProt Q0JBA9, entry or part of it: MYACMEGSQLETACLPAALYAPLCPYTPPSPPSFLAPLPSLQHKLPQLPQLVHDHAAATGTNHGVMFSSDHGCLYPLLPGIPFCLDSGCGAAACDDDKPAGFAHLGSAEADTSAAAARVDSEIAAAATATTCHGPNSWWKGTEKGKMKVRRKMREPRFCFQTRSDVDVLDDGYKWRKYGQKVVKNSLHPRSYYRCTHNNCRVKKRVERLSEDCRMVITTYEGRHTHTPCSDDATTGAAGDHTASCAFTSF
# Target: OsWRKY34 (Oryza sativa, UniProt Q0JBA9 1-250)
# Test: protein-binding microarray (RPBM); PBS, 2% BSA, 51.3 ng/ul salmon testes DNA, 50 uM zinc acetate, 200 nM TF, 25 C, 1 h; high values mean tight binding
# Conditions: protein: recombinant; tags: N-terminal polyhistidine and DsRed monomer fusion (pET32a); label: CyDye5-dUTP incorporated in the synthesized complementary strand; 3' TTTTT single-stranded linker to array surface; dsDNA, one strand shown
# How it was run: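 The binding signal is fluorescence intensity per feature, in arbitrary units, read on an Axon 4000B scanner. Polyhistidine- and DsRed-tagged transcription factors (N-terminal fusions) from E. coli BL21-CodonPlus were purified on Ni–NTA and applied at 200 nM for 1 h at 25 °C to a double-stranded, BSA-blocked custom Agilent array in buffer with 50 µM zinc acetate.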
row,Sequence,binding signal
1,CACACTTTCCTTCAGCTAGTTTATAAATATGCTCGAGGACCGGAGTCACCTAGTGCAG,8130 fluorescence intensity (a.u.)
2,TCAATCTCGAAAAATTTTCATTGAGCGTCAATCTTTTCATCGGAGTCACCTAGTGCAG,8350 fluorescence intensity (a.u.)
3,CCCTATCGAACGACCACCGAAACCATCATCATTCATCACCCGGAGTCACCTAGTGCAG,9470 fluorescence intensity (a.u.)
4,CACTCTCATATTGTCCCACATGTTAGTATTTATAATGGTACGGAGTCACCTAGTGCAG,9340 fluorescence intensity (a.u.)
5,ACCCACAAACGATCCATCCATCACTCGATCGTAACAACTTCGGAGTCACCTAGTGCAG,10200 fluorescence intensity (a.u.)
6,CGCCCTCGCTTCGCTTCCACTCCACCTCTCTCTCGATTCACGGAGTCACCTAGTGCAG,10800 fluorescence intensity (a.u.)
7,CCCCACGAAACCAGTCCACCACCATCTCTAGAACTTTCCACGGAGTCACCTAGTGCAG,10000 fluorescence intensity (a.u.)
8,ACAGGAGCACCATCAACAGCTGACAACTTGGCATTGGTATCGGAGTCACCTAGTGCAG,8900 fluorescence intensity (a.u.)
9,ATAAAAAGTCAACGGCGTCATATATTAAAATATGAAGGTACGGAGTCACCTAGTGCAG,8990 fluorescence intensity (a.u.)
10,CATATACTCTATCCGTTTCTAAATATTTGACGCCGTTGACCGGAGTCACCTAGTGCAG,16200 fluorescence intensity (a.u.)
11,CTGCTCTAGATTTTGTATCGTATCCTCGCGTTGCATTACGCGGAGTCACCTAGTGCAG,12200 fluorescence intensity (a.u.)
12,ACCTCGCCACCGTCGCAACAACCGTGCCGCCCTCCACCAACGGAGTCACCTAGTGCAG,9210 fluorescence intensity (a.u.)
13,AACACAAGGGCACTCTAGGATGGCTCACGTTGATCGTGCCCGGAGTCACCTAGTGCAG,8080 fluorescence intensity (a.u.)
14,ATGATGGATAAGTGGGTGGGCCAAACAGGTGCTCACGTGGCGGAGTCACCTAGTGCAG,9050 fluorescence intensity (a.u.)
15,GGGCATTTTAGTCTTTATGTTTATTTCGGTGGAAGGATATCGGAGTCACCTAGTGCAG,12300 fluorescence intensity (a.u.)
16,TATTGACTTTGGTCAAAGTCAAACTGTTTTAAATTTCACTCGGAGTCACCTAGTGCAG,10500 fluorescence intensity (a.u.)
17,ACTTGGTTCTTGCTCATCATCTTTCGCTTGCTCGTCAGCTCGGAGTCACCTAGTGCAG,8360 fluorescence intensity (a.u.)
18,TGCACGTTCCATCCATCGATCACTTGCTGCGATCCGCGGCCGGAGTCACCTAGTGCAG,9240 fluorescence intensity (a.u.)
19,TTTTCTTACGGTACTGTCATCTCATTGTTTCCTCTAAAAACGGAGTCACCTAGTGCAG,11800 fluorescence intensity (a.u.)
20,GCCATTCCACATCAGTCCGTGCCGCTCTCTGCCCATTCTCCGGAGTCACCTAGTGCAG,18900 fluorescence intensity (a.u.)
21,TCTTACCCCAAGTTTCCCAACTCATCTCTCTCGTTTTCCTCGGAGTCACCTAGTGCAG,10600 fluorescence intensity (a.u.)

row,Sequence,binding signal
1,CTTGTTGGGTCTTTTTTTTTTGGGCAAGATGGTGAATTGGCGGAGTCACCTAGTGCAG,8480 fluorescence intensity (a.u.)
2,GCGCGCCGCCTGACTTCCTCTCCTTCTCCGGTGCCTCACCCGGAGTCACCTAGTGCAG,8600 fluorescence intensity (a.u.)
3,CTGTCAACGAGTGCCTATCTTCAATCAGCTATACCTATGTCGGAGTCACCTAGTGCAG,8800 fluorescence intensity (a.u.)
4,ATTCGTAATTCACTACTTATTTCGCATTTCAGTACAATATCGGAGTCACCTAGTGCAG,10600 fluorescence intensity (a.u.)
5,TTGTTTTGTATTAGTAGTTAATTACCGCGCTCTCTAATACCGGAGTCACCTAGTGCAG,11400 fluorescence intensity (a.u.)
6,CTCTTTTAGGTGATTGTTCTTGTTCTTCTTCTTCGACATGCGGAGTCACCTAGTGCAG,9620 fluorescence intensity (a.u.)
7,CCCACCCCATCCAACCTGTCTCCGCCAAATACTACTCCTCCGGAGTCACCTAGTGCAG,9150 fluorescence intensity (a.u.)
8,TTTTGACGCATTTTATTGCTGAGTTGCTAGTAGGCATGATCGGAGTCACCTAGTGCAG,8030 fluorescence intensity (a.u.)
9,ACATCTCGCCGCCGGCGTCGTTTCCTGTTTCCCACAGGTTCGGAGTCACCTAGTGCAG,8980 fluorescence intensity (a.u.)
10,CTACATAGATTCTAACCTCTACTTTCAATTTTCTTATTTTCGGAGTCACCTAGTGCAG,8200 fluorescence intensity (a.u.)
11,GTATTATGGGCCGTGGGTACCCGCGCGGGGCCGGGGACGGCGGAGTCACCTAGTGCAG,9710 fluorescence intensity (a.u.)
12,TTGCTCCATCCACGTTTAAATATTAAAATATTTTAATATTCGGAGTCACCTAGTGCAG,9900 fluorescence intensity (a.u.)
13,CCTTCTATTTTTCCGTCACATCAAATGTTTGGACACATGTCGGAGTCACCTAGTGCAG,9670 fluorescence intensity (a.u.)
14,GGCTCGGTTTGATATGTTTCGGCCTTGTTCGGTTGGTCCGCGGAGTCACCTAGTGCAG,9960 fluorescence intensity (a.u.)
15,TCAGTCCATCCAACGCGTCTTCAGTCCTCACCCGCAGCAACGGAGTCACCTAGTGCAG,8870 fluorescence intensity (a.u.)
16,TCTTCATCTGCCTCACTTTCTCTCTCTACTTCACTTCTTCCGGAGTCACCTAGTGCAG,8980 fluorescence intensity (a.u.)
17,CTTCTCCCTCGTTTTCCGCGCGCATGCTTTTCAAACTAATCGGAGTCACCTAGTGCAG,9500 fluorescence intensity (a.u.)
18,GTACGTTTGCATTGCAGGCATTTCTTCTCCAAGGCGTCCGCGGAGTCACCTAGTGCAG,8800 fluorescence intensity (a.u.)
19,ATTGTGCTTGTATGGTTCTGATTATATGATGCGTATTTTCCGGAGTCACCTAGTGCAG,10800 fluorescence intensity (a.u.)
20,TGTTTAAACAACTCCTTACCTTTGCAATCTTGCATCCCAGCGGAGTCACCTAGTGCAG,8040 fluorescence intensity (a.u.)
21,TGACCATTTCCGGTGGGAGGGCGGAGGTTTTGTCCCGGCTCGGAGTCACCTAGTGCAG,8180 fluorescence intensity (a.u.)

row,Sequence,binding signal
1,AACACTCACATCAAGTCATCAACCGACCTTGTCAAGTCAACGGAGTCACCTAGTGCAG,10600 fluorescence intensity (a.u.)
2,AACCTGTAACATCAGCGGTGCATTTTGGCAATCTTCTTTCCGGAGTCACCTAGTGCAG,9070 fluorescence intensity (a.u.)
3,AGGAACTATGCCTGGCAGCATCCATGTCTCAGGTTTTTTTCGGAGTCACCTAGTGCAG,8880 fluorescence intensity (a.u.)
4,CACCGCGCCGTGCGCCAGCACCCGCACTTGCGCCACCCACCGGAGTCACCTAGTGCAG,8920 fluorescence intensity (a.u.)
5,ACTTTTATTTATCTCTCTCTTCCACATAAGCATTTAGCTTCGGAGTCACCTAGTGCAG,8130 fluorescence intensity (a.u.)
6,TCCATCATCCAATACCGTTAACTTTTATTTTTCCGCTTTTCGGAGTCACCTAGTGCAG,12100 fluorescence intensity (a.u.)
7,ATCTTTCTAATTTTGGGCCGTTCATTTGTTTAAGATTCGTCGGAGTCACCTAGTGCAG,10400 fluorescence intensity (a.u.)
8,ATTCACCTCACTATATCATTGATCATCCGAGTCCTAACTGCGGAGTCACCTAGTGCAG,9680 fluorescence intensity (a.u.)
9,GCAAAATCGAGATATGCCATCCTGACCCACATGCCATTGACGGAGTCACCTAGTGCAG,8080 fluorescence intensity (a.u.)
10,TGCACTTATTTTACCATTAGTTTTGAAACTATATATTTCTCGGAGTCACCTAGTGCAG,8740 fluorescence intensity (a.u.)
11,CATCCTTTTCCCGTGTCTCGTACTACTCTCGTGTGGCAAACGGAGTCACCTAGTGCAG,8320 fluorescence intensity (a.u.)
12,ACATTCTTGTTGCAAGTAATTTACAGTCATTGACTGTTTACGGAGTCACCTAGTGCAG,10900 fluorescence intensity (a.u.)
13,ACTCTTTACTCTTTCTTTTCTTCTTTCTTTTTTGGCGGGGCGGAGTCACCTAGTGCAG,21200 fluorescence intensity (a.u.)
14,ATTAGTCCTGTTGTTCCATCTGCCTGCTTGACTACAAGCACGGAGTCACCTAGTGCAG,8400 fluorescence intensity (a.u.)
15,CTACATGGGTGTTGACTCATTTTATTTATCTTTTTCTCCACGGAGTCACCTAGTGCAG,10300 fluorescence intensity (a.u.)
16,GCTGTTTTTTTTTCTTTTGTTTCTCCTCATTTGCTTTCTTCGGAGTCACCTAGTGCAG,13500 fluorescence intensity (a.u.)
17,GCTATTTCCTGTTCACGGTTCCCCACATCTTTTGCTAGCACGGAGTCACCTAGTGCAG,10900 fluorescence intensity (a.u.)
18,GGGTATGTTTGGCTAATGGGTTAGGGAGATGATTTCCCATCGGAGTCACCTAGTGCAG,9750 fluorescence intensity (a.u.)
19,CGTCCGCCGCCGCCGCCGCCACCACCTGCACCGATCCCCACGGAGTCACCTAGTGCAG,13100 fluorescence intensity (a.u.)
20,AACACCATGTCAACACTGCCACATTAGCGTCACGTCAGCACGGAGTCACCTAGTGCAG,9950 fluorescence intensity (a.u.)
21,CCTTTTCGCTTCTCTCGAGAAATCAAACCGTTCCTTTTTCCGGAGTCACCTAGTGCAG,10200 fluorescence intensity (a.u.)

# Part of the list above, reformatted.
row	Sequence	binding signal
5	ACTTTTATTTATCTCTCTCTTCCACATAAGCATTTAGCTTCGGAGTCACCTAGTGCAG	8130 fluorescence intensity (a.u.)
10	TGCACTTATTTTACCATTAGTTTTGAAACTATATATTTCTCGGAGTCACCTAGTGCAG	8740 fluorescence intensity (a.u.)
12	ACATTCTTGTTGCAAGTAATTTACAGTCATTGACTGTTTACGGAGTCACCTAGTGCAG	10900 fluorescence intensity (a.u.)
13	ACTCTTTACTCTTTCTTTTCTTCTTTCTTTTTTGGCGGGGCGGAGTCACCTAGTGCAG	21200 fluorescence intensity (a.u.)
14	ATTAGTCCTGTTGTTCCATCTGCCTGCTTGACTACAAGCACGGAGTCACCTAGTGCAG	8400 fluorescence intensity (a.u.)
16	GCTGTTTTTTTTTCTTTTGTTTCTCCTCATTTGCTTTCTTCGGAGTCACCTAGTGCAG	13500 fluorescence intensity (a.u.)
21	CCTTTTCGCTTCTCTCGAGAAATCAAACCGTTCCTTTTTCCGGAGTCACCTAGTGCAG	10200 fluorescence intensity (a.u.)

# The list goes on.

row,Sequence,binding signal
1,CGCCGTGTCCTTGCTCCTCCTAACTCAATAACATTACACGCGGAGTCACCTAGTGCAG,8790 fluorescence intensity (a.u.)
2,GATTCGGTGCTAGCCTTCTCCCGGATTGTGTGTTGAAGCTCGGAGTCACCTAGTGCAG,8080 fluorescence intensity (a.u.)
3,GTGCTTTATCAGTGTGTGATGGTTCTTGCTGCCATGGTTACGGAGTCACCTAGTGCAG,8740 fluorescence intensity (a.u.)
4,CTCCGCCGTCACCTCCACCACGCTGCCATCGCTTCGATCTCGGAGTCACCTAGTGCAG,14900 fluorescence intensity (a.u.)
5,AGCATAGGTAGTGTTTTAATAGAGGTGTTTAGTTTGCTATCGGAGTCACCTAGTGCAG,8940 fluorescence intensity (a.u.)
6,ACACCCACACTGTGCCGCAACGCCTCACGAACTCCGCGCGCGGAGTCACCTAGTGCAG,8560 fluorescence intensity (a.u.)
7,TCATCGGGGTTGGCGTTTAGGTATCTTTTTAGCGCCATGGCGGAGTCACCTAGTGCAG,11500 fluorescence intensity (a.u.)
8,TGCACCCCAGAGACAACCTAGCTACGTACCCTGCATCTGACGGAGTCACCTAGTGCAG,8140 fluorescence intensity (a.u.)
9,TGAGCCATCAGACATTTATCACTTGGTTTCGTTTTACCTACGGAGTCACCTAGTGCAG,9480 fluorescence intensity (a.u.)
10,AGCCCTGGTGTCTCTCTCAGCTTGTCCAGATACTTCCCCGCGGAGTCACCTAGTGCAG,8920 fluorescence intensity (a.u.)
11,TTGGGTTGGGAATGGCGTTAGTAGCAGCTGGTGCAGCAGACGGAGTCACCTAGTGCAG,8710 fluorescence intensity (a.u.)
12,ATGTACTCCGTTTCAATTTCGATTTGCTTGTCGTTCTAACCGGAGTCACCTAGTGCAG,9070 fluorescence intensity (a.u.)
13,ATGCTATACTCTCTTTTCCCATAAAAAATAGTATTTTTTACGGAGTCACCTAGTGCAG,8220 fluorescence intensity (a.u.)
14,AACCCCGACTCACGCGGAGCCACCGCCCTCGACTGTCGCCCGGAGTCACCTAGTGCAG,8710 fluorescence intensity (a.u.)
15,TGAAATGGATGGACGGTGATCACGTGTTGACCAGACCTGACGGAGTCACCTAGTGCAG,9960 fluorescence intensity (a.u.)
16,TTGCTTCTCCGCCAGATCCGGTTGTCGTCGCCATCGCCTCCGGAGTCACCTAGTGCAG,9590 fluorescence intensity (a.u.)
17,TTCTTCTTCTTCTTCAATTCTTGGACCATTCTTCCCTTCTCGGAGTCACCTAGTGCAG,11500 fluorescence intensity (a.u.)
18,TTCACCACCACCGCCACGGCCTCTGCCTCTCGCTCTCTCTCGGAGTCACCTAGTGCAG,10200 fluorescence intensity (a.u.)
19,AAGGGTCGGGTTTGGGCAAAATCTCGGCTGTGTTTCGTTGCGGAGTCACCTAGTGCAG,9220 fluorescence intensity (a.u.)
20,CCTCAACCGTGACTCAGTTATTCAGTTCGACACCCAGCCGCGGAGTCACCTAGTGCAG,8070 fluorescence intensity (a.u.)
21,GATTTTTATGATGTGATGGATTCTGGCCGGTTAGTTTTGTCGGAGTCACCTAGTGCAG,12300 fluorescence intensity (a.u.)
